Data set [1] can be described thus: general procedure: Fmoc solid-phase peptide synthesis; O-bis-(aminoethyl)ethyleneglycol trityl resin (LLP2A); Wang resin (BK); HBTU/DIPEA; NHS esters for solution conjugations. The following applies: whole synthesis.
The nature of data set [2]: general procedure: Fmoc solid-phase peptide synthesis; Wang resin; HBTU/DIPEA; NHS esters for solution conjugations. The following applies: whole synthesis, scale 16.5 μmol.

As to “DOTA-((L)-Lys-E-1,2,3-triazole-N,N-dimethyl-ammoniomethyl-trifluoroborate)-4-amino-1-carboxymethyl-piperidine-Lys-Arg-Pro-Hyp-Gly-Cha-Ser-Pro-Leu-COOH”, in data set [1], the difficulty met result was “HPLC purification of bradykinin derivatives has proven to be difficult” and the isolated yield is on record as 5.5%. Also, in data set [2], the isolated mass was 1.7 mg and the isolated yield is recorded as 5%.
